Measurements reported in PubChem BioAssay AID504764 (Drosophila RNAi Screening Center, 2011)
Assay: 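Knock-downs that raise or lower a Notch target reporter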 (primary screen). System: Drosophila Kc167 cells. Reagents: long dsRNA against Drosophila genes. Timing: about 5 days (4 days dsRNA, then 24 h after transfection). Conditions: transfection of constitutively active membrane-tethered Notch lacking the extracellular domain, read 24 h later. Measurement: 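Firefly luciferase from an E(spl)m3 reporter with active Notch, plus control-promoter and uninduced reporter wells for normalisation; unnormalised counts, duplicate wells a and b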. Scale: induced reporter light, run 1, well a and induced reporter light, run 1, well b: higher = more light from the Notch target reporter with active Notch; control promoter light, run 1, well a and control promoter light, run 1, well b: higher = more light from the viral control promoter (cell number, transfection, viability); uninduced reporter light, run 1, well a: higher = more light from the Notch target reporter without active Notch. Active means: 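Hit if the duplicate-averaged log2 ratio of induced to control-promoter light gives a plate-wise z beyond ±2, or induced to uninduced beyond ±1.8; weak-control or discordant-duplicate wells dropped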. Meaning of the calls: active = modifier hit (raised or lowered Notch signal); inactive = not a hit.
In all, the deposit lists about 22,000 reagents; shown is an unselected part of those that have a named target and a result. Over the whole deposit, 403 (1.9%) got an active call. 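Unnormalised raw counts per well; ratio z-scores behind the hit calls and whether each hit raises or lowers signal are not deposited.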 Not stated in the record: the amount of reagent.

fwe [DRSC09398] scored induced reporter light, run 1, well a = 1.91e5; induced reporter light, run 1, well b = 1.76e5; control promoter light, run 1, well a = 2.83e5; control promoter light, run 1, well b = 2.73e5; uninduced reporter light, run 1, well a = 21085; inactive.
Against fwe [DRSC10594], the entry reads induced reporter light, run 1, well a = 1.25e5; induced reporter light, run 1, well b = 1.10e5; control promoter light, run 1, well a = 79345; control promoter light, run 1, well b = 92395; uninduced reporter light, run 1, well a = 10595; inactive.
Silencing of Spn75F [DRSC09589] gave: induced reporter light, run 1, well a = 2.84e5; induced reporter light, run 1, well b = 2.77e5; control promoter light, run 1, well a = 3.71e5; control promoter light, run 1, well b = 2.89e5; uninduced reporter light, run 1, well a = 22450; inactive.
After knock-down of CG8840 [DRSC00713], the record shows induced reporter light, run 1, well a = 1.70e5; induced reporter light, run 1, well b = 1.28e5; control promoter light, run 1, well a = 1.31e5; control promoter light, run 1, well b = 1.39e5; uninduced reporter light, run 1, well a = 10505; inactive.
Depletion of inaF-C [DRSC18902] resulted in: induced reporter light, run 1, well a = 87920; induced reporter light, run 1, well b = 65560; control promoter light, run 1, well a = 96010; control promoter light, run 1, well b = 73105; uninduced reporter light, run 1, well a = 6015; inactive.
azot [DRSC06051] showed induced reporter light, run 1, well a = 2.13e5; induced reporter light, run 1, well b = 2.20e5; control promoter light, run 1, well a = 2.71e5; control promoter light, run 1, well b = 2.70e5; uninduced reporter light, run 1, well a = 19820; inactive.
Lrpprc2 [DRSC18605] gave induced reporter light, run 1, well a = 2.02e5; induced reporter light, run 1, well b = 1.75e5; control promoter light, run 1, well a = 2.15e5; control promoter light, run 1, well b = 2.33e5; uninduced reporter light, run 1, well a = 14235; inactive.
For CG14043 [DRSC02368], the entry reads induced reporter light, run 1, well a = 1.51e5; induced reporter light, run 1, well b = 1.07e5; control promoter light, run 1, well a = 1.31e5; control promoter light, run 1, well b = 1.18e5; uninduced reporter light, run 1, well a = 7925; inactive.
Against CG30325 [DRSC05685], the entry reads induced reporter light, run 1, well a = 1.20e5; induced reporter light, run 1, well b = 1.07e5; control promoter light, run 1, well a = 1.90e5; control promoter light, run 1, well b = 1.38e5; uninduced reporter light, run 1, well a = 9455; inactive.
Knock-down of Wdr37 [DRSC14500] gave: induced reporter light, run 1, well a = 2438; induced reporter light, run 1, well b = 2720; control promoter light, run 1, well a = 2615; control promoter light, run 1, well b = 2815; uninduced reporter light, run 1, well a = 365; inactive.

4 entries from above, sorted by “induced reporter light, run 1, well b”, ascending:
Wdr37 [DRSC14500]: induced reporter light, run 1, well a = 2438; induced reporter light, run 1, well b = 2720; control promoter light, run 1, well a = 2615; control promoter light, run 1, well b = 2815; uninduced reporter light, run 1, well a = 365; call = inactive
CG14043 [DRSC02368]: induced reporter light, run 1, well a = 1.51e5; induced reporter light, run 1, well b = 1.07e5; control promoter light, run 1, well a = 1.31e5; control promoter light, run 1, well b = 1.18e5; uninduced reporter light, run 1, well a = 7925; call = inactive
CG30325 [DRSC05685]: induced reporter light, run 1, well a = 1.20e5; induced reporter light, run 1, well b = 1.07e5; control promoter light, run 1, well a = 1.90e5; control promoter light, run 1, well b = 1.38e5; uninduced reporter light, run 1, well a = 9455; call = inactive
Lrpprc2 [DRSC18605]: induced reporter light, run 1, well a = 2.02e5; induced reporter light, run 1, well b = 1.75e5; control promoter light, run 1, well a = 2.15e5; control promoter light, run 1, well b = 2.33e5; uninduced reporter light, run 1, well a = 14235; call = inactive

The list goes on.
Knock-down of ed [DRSC00350] came out at: induced reporter light, run 1, well a = 1.67e5; induced reporter light, run 1, well b = 2.28e5; control promoter light, run 1, well a = 2.13e5; control promoter light, run 1, well b = 2.23e5; uninduced reporter light, run 1, well a = 16545; inactive.
With knock-down of ed [DRSC00438], the record shows induced reporter light, run 1, well a = 1.72e5; induced reporter light, run 1, well b = 1.47e5; control promoter light, run 1, well a = 2.40e5; control promoter light, run 1, well b = 1.83e5; uninduced reporter light, run 1, well a = 10350; inactive.
ed [DRSC00439] scored induced reporter light, run 1, well a = 1.72e5; induced reporter light, run 1, well b = 1.32e5; control promoter light, run 1, well a = 1.38e5; control promoter light, run 1, well b = 1.31e5; uninduced reporter light, run 1, well a = 7185; inactive.
After knock-down of ed [DRSC00478], the screen gave induced reporter light, run 1, well a = 60585; induced reporter light, run 1, well b = 42820; control promoter light, run 1, well a = 47005; control promoter light, run 1, well b = 47130; uninduced reporter light, run 1, well a = 3615; inactive.
Knock-down of CG3955 [DRSC06859] resulted in: induced reporter light, run 1, well a = 1.71e5; induced reporter light, run 1, well b = 1.31e5; control promoter light, run 1, well a = 1.15e5; control promoter light, run 1, well b = 1.30e5; uninduced reporter light, run 1, well a = 10810; inactive.
After knock-down of CG31122 [DRSC14787], the screen gave induced reporter light, run 1, well a = 38; induced reporter light, run 1, well b = 92; control promoter light, run 1, well a = 280; control promoter light, run 1, well b = 195; uninduced reporter light, run 1, well a = 15; inactive.
Against CG31122 [DRSC16286], the values are induced reporter light, run 1, well a = 1.47e5; induced reporter light, run 1, well b = 1.19e5; control promoter light, run 1, well a = 1.25e5; control promoter light, run 1, well b = 1.37e5; uninduced reporter light, run 1, well a = 11075; inactive.
For CG30411 [DRSC04004], the entry reads induced reporter light, run 1, well a = 87580; induced reporter light, run 1, well b = 97755; control promoter light, run 1, well a = 1.34e5; control promoter light, run 1, well b = 1.30e5; uninduced reporter light, run 1, well a = 5070; inactive.
Knock-down of ND-B22 [DRSC03193] gave: induced reporter light, run 1, well a = 66345; induced reporter light, run 1, well b = 76145; control promoter light, run 1, well a = 77495; control promoter light, run 1, well b = 1.07e5; uninduced reporter light, run 1, well a = 5570; inactive.
With knock-down of P5cr [DRSC16782] the results were induced reporter light, run 1, well a = 1.81e5; induced reporter light, run 1, well b = 1.34e5; control promoter light, run 1, well a = 2.01e5; control promoter light, run 1, well b = 2.07e5; uninduced reporter light, run 1, well a = 14285; inactive.
Depletion of CG18789 [DRSC02696] resulted in: induced reporter light, run 1, well a = 1.33e5; induced reporter light, run 1, well b = 1.41e5; control promoter light, run 1, well a = 1.39e5; control promoter light, run 1, well b = 1.73e5; uninduced reporter light, run 1, well a = 14415; inactive.
Knock-down of Eaat2 [DRSC00032] gave: induced reporter light, run 1, well a = 95525; induced reporter light, run 1, well b = 70875; control promoter light, run 1, well a = 1.76e5; control promoter light, run 1, well b = 1.35e5; uninduced reporter light, run 1, well a = 7735; active.
Silencing of Eaat2 [DRSC00749] gave: induced reporter light, run 1, well a = 2.06e5; induced reporter light, run 1, well b = 1.91e5; control promoter light, run 1, well a = 1.97e5; control promoter light, run 1, well b = 2.34e5; uninduced reporter light, run 1, well a = 19520; inactive.
With knock-down of CtsB [DRSC19361] the results were induced reporter light, run 1, well a = 1.55e5; induced reporter light, run 1, well b = 1.60e5; control promoter light, run 1, well a = 1.77e5; control promoter light, run 1, well b = 2.22e5; uninduced reporter light, run 1, well a = 12790; inactive.
